Data from PMC8275391.
These are yes or no findings as the source states them, for the method shown. Binding seen in cells or lysates may run through a third protein. Some binding calls cover weakened binding; strength is not graded here.

Amino acid sequences for entries named in this document (tags omitted).
UniProt P48675: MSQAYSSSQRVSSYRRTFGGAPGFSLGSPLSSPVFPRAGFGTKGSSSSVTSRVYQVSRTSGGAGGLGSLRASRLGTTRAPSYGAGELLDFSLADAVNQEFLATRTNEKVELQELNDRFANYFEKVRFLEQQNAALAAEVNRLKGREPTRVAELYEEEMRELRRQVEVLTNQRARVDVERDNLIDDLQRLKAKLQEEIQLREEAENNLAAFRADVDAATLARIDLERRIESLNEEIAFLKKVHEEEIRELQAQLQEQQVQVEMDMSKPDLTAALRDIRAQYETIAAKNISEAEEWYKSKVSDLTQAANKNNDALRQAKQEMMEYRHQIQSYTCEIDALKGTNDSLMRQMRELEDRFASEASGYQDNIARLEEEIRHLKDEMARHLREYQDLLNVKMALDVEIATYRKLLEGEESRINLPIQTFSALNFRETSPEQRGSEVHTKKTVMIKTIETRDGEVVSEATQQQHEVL
UniProt P08050: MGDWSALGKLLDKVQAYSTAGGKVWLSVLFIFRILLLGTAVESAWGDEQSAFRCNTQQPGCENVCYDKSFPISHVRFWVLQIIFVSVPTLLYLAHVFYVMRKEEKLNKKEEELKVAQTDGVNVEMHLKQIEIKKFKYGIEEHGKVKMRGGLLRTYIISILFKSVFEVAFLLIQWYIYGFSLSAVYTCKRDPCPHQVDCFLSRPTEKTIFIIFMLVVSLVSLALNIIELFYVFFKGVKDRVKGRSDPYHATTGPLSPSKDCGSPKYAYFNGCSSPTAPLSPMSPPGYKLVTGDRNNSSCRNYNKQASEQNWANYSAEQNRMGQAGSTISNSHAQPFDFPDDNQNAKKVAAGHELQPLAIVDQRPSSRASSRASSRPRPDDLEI
UniProt A0A0G2K2P5: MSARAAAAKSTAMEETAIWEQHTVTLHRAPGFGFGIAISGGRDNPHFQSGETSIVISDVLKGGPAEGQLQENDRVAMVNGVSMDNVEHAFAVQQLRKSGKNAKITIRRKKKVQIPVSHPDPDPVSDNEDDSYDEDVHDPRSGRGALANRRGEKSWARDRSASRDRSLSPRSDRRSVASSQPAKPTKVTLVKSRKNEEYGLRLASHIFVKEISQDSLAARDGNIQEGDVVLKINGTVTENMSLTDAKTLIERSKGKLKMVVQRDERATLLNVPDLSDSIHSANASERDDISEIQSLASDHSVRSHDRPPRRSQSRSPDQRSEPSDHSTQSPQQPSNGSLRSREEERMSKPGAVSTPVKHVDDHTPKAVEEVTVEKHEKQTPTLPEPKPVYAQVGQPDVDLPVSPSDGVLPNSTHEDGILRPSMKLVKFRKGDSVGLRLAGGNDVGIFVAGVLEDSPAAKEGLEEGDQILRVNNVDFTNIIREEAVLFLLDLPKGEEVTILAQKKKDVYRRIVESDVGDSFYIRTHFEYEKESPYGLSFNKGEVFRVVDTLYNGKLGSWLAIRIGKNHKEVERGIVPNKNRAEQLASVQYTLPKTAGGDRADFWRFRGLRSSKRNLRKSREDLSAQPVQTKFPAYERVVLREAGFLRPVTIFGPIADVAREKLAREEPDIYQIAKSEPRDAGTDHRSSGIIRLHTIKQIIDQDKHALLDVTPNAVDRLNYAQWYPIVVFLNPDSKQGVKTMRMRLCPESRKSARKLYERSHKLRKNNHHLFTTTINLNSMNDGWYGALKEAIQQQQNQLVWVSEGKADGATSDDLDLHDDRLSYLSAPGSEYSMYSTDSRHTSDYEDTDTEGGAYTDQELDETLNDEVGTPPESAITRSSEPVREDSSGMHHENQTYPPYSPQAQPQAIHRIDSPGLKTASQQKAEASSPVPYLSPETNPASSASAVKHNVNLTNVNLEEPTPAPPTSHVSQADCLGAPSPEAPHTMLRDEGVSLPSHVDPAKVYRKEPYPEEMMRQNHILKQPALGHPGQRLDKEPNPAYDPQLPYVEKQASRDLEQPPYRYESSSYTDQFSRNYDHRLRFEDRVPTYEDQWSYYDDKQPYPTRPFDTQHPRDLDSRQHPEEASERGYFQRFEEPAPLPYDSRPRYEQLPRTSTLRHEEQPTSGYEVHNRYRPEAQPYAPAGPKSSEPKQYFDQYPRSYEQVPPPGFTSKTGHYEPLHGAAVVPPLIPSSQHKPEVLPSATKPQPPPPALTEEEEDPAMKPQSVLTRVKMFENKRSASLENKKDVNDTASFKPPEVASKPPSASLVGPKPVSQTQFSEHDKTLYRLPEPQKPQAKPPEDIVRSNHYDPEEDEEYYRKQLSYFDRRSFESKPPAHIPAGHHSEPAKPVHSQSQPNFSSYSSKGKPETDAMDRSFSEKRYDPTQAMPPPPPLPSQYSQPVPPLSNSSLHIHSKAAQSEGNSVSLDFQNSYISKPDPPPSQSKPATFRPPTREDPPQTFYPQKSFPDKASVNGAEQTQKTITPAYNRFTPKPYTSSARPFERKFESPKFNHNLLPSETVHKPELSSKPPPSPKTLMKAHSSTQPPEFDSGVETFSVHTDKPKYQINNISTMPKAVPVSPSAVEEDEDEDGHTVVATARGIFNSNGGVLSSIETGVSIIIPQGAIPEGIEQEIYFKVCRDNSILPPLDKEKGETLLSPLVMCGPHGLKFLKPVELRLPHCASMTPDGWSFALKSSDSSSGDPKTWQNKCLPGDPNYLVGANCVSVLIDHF

Legend:
[1] = molecular target: desmin (rat (endogenous in isolated cardiac myocytes)) (UniProt P48675); experiment: co-IP; lysates of isolated cardiac myocytes (50 ug protein, RIPA buffer, overnight 4 C, protein A/G magnetic beads); IP with anti-desmin or anti-Cx43, blots with anti-desmin or anti-Cx43
[2] = molecular target: desmin overexpressed from the MLV-desmin-EGFP plasmid (UniProt P48675); experiment: co-IP; lysates of desmin-overexpressing (OV) cultured skeletal myoblasts (RIPA buffer, protein A/G magnetic beads); IP with anti-desmin, blots with anti-Cx43 and anti-ZO-1; IgG as negative control

## connexin 43 (from UniProt P08050 1-382)
[1]
  binding: binds
[2]
  binding: binds

## zonula occludens-1 (from UniProt A0A0G2K2P5 1-1765)
[2]
  binding: binds
